# Source: the supplement of paper PMC6411743
# By UniProt entry, the sequences of proteins in these tests, tags left out. Where a name states a change or a piece, a line headed by the entry shows the natural chain unless it says otherwise.
# UniProt Q9P2K8: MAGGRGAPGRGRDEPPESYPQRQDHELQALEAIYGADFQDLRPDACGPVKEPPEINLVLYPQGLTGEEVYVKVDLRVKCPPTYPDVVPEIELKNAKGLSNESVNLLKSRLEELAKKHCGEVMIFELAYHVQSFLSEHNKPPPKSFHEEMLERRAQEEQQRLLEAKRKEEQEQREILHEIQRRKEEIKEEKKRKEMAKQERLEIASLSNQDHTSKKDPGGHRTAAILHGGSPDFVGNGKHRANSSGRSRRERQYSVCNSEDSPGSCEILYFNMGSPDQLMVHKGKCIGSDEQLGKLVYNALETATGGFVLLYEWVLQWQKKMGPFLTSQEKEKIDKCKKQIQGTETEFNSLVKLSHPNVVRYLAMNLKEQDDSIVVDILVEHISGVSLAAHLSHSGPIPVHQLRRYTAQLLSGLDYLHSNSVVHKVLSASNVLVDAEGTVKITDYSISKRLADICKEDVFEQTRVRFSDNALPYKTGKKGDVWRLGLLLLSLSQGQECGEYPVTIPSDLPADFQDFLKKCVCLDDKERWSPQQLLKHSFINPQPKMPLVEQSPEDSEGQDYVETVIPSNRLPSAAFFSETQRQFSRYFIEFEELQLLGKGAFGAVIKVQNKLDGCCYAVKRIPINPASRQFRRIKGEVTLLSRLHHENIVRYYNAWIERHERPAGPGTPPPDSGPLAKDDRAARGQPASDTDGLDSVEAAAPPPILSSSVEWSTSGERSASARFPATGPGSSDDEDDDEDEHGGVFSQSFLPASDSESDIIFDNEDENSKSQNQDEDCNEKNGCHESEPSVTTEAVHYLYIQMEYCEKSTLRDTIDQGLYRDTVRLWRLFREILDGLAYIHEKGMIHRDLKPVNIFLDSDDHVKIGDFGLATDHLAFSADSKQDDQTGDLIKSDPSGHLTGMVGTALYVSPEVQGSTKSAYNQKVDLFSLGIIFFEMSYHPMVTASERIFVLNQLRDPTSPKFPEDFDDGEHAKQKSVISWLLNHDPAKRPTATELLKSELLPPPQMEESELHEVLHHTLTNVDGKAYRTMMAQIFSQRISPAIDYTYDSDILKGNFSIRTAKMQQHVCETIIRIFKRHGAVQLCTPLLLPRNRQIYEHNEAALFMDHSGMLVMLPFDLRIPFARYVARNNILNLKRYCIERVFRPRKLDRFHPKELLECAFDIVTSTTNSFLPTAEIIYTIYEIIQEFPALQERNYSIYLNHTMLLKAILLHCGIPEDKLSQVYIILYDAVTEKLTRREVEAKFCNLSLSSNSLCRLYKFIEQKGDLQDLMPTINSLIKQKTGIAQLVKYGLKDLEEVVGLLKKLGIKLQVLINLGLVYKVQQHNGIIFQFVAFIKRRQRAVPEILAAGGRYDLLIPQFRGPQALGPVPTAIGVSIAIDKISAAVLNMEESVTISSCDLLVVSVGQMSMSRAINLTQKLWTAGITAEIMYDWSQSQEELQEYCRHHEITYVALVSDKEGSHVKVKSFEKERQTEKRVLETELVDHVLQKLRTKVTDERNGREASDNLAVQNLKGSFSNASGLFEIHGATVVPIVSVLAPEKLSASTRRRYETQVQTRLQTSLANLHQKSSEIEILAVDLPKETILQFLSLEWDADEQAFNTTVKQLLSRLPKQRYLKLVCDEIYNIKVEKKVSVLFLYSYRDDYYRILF
# UniProt Q9NZC9: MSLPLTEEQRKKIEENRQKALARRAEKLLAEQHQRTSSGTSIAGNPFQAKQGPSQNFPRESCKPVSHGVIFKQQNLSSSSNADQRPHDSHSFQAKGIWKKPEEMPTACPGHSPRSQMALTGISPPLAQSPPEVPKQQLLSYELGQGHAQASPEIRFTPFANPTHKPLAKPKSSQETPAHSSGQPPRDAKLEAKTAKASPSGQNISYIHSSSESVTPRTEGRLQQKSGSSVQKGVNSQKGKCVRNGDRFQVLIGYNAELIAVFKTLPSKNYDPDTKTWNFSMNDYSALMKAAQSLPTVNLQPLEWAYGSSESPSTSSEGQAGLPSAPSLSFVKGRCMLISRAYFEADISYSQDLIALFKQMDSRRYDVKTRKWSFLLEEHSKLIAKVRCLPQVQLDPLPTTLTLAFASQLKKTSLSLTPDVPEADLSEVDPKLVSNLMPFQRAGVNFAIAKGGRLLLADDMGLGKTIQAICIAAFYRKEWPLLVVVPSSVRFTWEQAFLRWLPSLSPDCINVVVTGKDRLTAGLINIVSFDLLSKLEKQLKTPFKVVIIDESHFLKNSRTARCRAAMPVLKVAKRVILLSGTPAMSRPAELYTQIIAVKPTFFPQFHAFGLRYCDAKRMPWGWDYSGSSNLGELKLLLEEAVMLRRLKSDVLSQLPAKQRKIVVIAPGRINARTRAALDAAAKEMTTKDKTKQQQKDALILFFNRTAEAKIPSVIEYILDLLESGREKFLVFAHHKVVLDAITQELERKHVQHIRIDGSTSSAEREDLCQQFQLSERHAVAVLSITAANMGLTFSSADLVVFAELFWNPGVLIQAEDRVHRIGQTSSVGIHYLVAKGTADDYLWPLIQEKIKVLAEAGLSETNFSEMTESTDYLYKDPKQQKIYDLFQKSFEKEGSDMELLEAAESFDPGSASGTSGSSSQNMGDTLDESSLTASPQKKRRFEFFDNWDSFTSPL
# UniProt Q9NR28: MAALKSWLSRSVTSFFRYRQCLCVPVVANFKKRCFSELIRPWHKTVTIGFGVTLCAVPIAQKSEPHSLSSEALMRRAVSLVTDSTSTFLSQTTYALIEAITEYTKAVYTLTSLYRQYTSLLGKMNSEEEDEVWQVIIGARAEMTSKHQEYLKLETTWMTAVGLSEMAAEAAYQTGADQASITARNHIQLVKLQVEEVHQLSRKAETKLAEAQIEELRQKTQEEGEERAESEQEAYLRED
# UniProt Q9UBH6: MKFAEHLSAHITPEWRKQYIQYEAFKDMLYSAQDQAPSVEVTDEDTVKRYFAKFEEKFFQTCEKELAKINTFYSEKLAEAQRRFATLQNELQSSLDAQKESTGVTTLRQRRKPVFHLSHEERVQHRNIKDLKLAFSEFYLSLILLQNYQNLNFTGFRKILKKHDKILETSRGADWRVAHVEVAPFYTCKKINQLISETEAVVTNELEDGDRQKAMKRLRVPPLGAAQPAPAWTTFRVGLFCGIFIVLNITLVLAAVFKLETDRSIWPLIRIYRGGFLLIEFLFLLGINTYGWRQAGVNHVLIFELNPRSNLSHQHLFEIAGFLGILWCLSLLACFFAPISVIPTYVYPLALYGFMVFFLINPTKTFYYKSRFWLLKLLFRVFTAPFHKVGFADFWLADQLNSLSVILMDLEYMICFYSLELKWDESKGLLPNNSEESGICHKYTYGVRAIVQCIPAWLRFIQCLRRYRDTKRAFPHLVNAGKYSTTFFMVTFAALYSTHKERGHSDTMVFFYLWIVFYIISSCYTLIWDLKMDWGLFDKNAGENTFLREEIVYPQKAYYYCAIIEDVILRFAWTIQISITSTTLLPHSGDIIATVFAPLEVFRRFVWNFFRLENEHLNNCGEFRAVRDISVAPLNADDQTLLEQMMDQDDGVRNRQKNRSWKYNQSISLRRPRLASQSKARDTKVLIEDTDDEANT
# UniProt Q9P265: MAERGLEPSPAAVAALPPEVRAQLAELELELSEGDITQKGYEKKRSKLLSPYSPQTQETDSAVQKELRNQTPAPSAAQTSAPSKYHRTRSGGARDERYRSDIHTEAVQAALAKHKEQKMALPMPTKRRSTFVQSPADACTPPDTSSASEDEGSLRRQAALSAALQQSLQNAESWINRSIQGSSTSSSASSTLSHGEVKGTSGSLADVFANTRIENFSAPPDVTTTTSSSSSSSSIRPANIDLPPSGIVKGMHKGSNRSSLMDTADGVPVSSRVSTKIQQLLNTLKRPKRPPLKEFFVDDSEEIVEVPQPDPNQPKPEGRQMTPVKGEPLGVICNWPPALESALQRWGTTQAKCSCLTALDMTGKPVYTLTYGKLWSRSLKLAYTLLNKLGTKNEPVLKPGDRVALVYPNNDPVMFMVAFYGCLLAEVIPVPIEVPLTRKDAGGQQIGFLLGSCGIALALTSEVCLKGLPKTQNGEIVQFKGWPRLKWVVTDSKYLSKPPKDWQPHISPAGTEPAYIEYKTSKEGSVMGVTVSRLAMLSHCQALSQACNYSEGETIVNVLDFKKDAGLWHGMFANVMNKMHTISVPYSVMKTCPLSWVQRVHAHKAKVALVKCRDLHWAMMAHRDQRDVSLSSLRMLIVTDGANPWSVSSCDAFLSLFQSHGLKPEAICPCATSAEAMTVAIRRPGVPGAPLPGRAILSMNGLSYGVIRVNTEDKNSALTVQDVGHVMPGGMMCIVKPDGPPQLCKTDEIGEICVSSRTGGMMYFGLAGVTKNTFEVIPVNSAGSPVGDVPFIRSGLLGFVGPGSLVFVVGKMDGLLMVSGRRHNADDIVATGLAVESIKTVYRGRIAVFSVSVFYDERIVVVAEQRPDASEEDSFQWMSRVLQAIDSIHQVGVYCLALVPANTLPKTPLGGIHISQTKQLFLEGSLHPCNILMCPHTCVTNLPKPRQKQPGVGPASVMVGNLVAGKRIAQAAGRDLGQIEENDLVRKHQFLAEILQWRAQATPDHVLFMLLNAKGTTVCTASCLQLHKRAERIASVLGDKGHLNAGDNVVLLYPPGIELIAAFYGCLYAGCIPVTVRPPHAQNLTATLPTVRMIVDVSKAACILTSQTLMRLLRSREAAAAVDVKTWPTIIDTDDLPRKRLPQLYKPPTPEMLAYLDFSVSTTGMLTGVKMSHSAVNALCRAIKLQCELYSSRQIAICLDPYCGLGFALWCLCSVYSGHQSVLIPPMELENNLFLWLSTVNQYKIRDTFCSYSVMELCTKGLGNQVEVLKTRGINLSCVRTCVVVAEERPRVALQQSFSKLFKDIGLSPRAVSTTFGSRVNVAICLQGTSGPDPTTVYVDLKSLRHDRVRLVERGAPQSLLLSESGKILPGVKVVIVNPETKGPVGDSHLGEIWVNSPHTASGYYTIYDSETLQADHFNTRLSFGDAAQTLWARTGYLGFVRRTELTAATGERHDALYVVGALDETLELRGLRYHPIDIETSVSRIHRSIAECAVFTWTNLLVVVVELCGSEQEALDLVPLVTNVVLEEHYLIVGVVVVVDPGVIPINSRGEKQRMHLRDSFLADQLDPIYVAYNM
# UniProt Q9NVR2, whole entry: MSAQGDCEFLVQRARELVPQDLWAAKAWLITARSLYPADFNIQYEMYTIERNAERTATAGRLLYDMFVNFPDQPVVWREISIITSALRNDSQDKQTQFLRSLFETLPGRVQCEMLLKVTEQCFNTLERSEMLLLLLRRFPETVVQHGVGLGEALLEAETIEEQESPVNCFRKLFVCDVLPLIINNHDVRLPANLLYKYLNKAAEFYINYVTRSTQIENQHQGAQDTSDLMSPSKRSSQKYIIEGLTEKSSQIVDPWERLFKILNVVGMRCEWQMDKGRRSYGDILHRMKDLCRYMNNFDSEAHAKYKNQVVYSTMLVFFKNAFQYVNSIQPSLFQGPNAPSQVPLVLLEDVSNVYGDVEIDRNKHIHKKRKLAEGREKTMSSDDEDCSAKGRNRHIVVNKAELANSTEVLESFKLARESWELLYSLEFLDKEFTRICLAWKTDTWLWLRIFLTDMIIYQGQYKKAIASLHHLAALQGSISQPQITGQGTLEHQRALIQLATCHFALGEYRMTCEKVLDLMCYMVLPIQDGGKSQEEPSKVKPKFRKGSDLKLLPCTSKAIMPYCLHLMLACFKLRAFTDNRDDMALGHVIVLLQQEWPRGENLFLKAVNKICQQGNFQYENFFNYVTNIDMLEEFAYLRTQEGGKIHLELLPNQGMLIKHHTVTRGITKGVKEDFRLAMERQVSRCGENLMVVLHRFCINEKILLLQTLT
# UniProt Q9NXF7, whole entry: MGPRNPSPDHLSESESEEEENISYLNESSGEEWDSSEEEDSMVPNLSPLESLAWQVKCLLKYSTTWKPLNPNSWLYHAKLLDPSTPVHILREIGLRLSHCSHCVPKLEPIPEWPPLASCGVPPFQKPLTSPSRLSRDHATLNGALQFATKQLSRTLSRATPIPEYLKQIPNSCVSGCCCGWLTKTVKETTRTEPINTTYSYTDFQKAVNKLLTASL
# UniProt Q9NS91, whole entry: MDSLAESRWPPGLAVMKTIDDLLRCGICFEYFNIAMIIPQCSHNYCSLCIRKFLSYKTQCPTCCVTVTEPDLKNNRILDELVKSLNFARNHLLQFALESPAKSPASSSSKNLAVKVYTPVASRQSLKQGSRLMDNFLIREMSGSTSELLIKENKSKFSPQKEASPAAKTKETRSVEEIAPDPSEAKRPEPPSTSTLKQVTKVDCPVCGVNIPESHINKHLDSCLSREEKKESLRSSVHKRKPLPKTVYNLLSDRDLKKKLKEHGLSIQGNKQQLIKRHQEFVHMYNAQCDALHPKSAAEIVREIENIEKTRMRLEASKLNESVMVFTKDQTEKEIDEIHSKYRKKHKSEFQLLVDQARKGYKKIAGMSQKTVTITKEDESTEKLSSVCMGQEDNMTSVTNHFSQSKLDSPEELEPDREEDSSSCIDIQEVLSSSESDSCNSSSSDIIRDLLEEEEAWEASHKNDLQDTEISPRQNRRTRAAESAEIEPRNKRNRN
# ± gives the standard deviation of the averaged measurements. This is a selection; strong and weak results do not stand in their true shares.
# Compound: Nc1ncnc2c1ncn2[C@@H]1O[C@H](COP(=O)(O)OP(=O)(O)NP(=O)(O)O)[C@@H](O)[C@H]1O [adenylyl imidodiphosphate]
# Assay: NP40-soluble protein abundance relative to vehicle (solubility fold change) (ratio); higher = more soluble protein in presence of AMP-PNP
# Procedure, shortened: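 Crude Jurkat lysate, prepared by Dounce homogenisation, was exposed to eight concentrations from 0.1 to 10 mM for 10 min at room temperature and then 3 min at 37 °C. Solubilisation used 0.8% NP40 with benzonase for 60 min at 4 °C, followed by ultracentrifugation and TMT labelling of the supernatant for LC-MS/MS. After vsn normalisation of intensities, each value is the fold change against the detergent-processed vehicle within each replicate, across three independent experiments.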
Target,NP40-soluble protein abundance (concentration: 1mM),NP40-soluble protein abundance (concentration: 2mM),NP40-soluble protein abundance (concentration: 4mM),NP40-soluble protein abundance (concentration: 6mM),NP40-soluble protein abundance (concentration: 8mM),NP40-soluble protein abundance (concentration: 10mM)
UniProt Q9P2R3 and related entries,0.987 ± 0.019,0.935 ± 0.049,1 ± 0.026,0.976 ± 0.039,1.002 ± 0.0045,0.9782 ± 0.0074
UniProt Q9P2K8 and related entries,0.981 ± 0.037,0.959 ± 0.055,0.994 ± 0.021,0.952 ± 0.012,0.9529 ± 0.0031,0.941 ± 0.023
SMARCAL1 (UniProt Q9NZC9),0.995 ± 0.035,1.01 ± 0.058,1 ± 0.021,1.02 ± 0.024,1.01 ± 0.026,1.02 ± 0.02
UniProt Q9NRG0 and related entries,1.001 ± 0.0097,0.967 ± 0.036,0.9734 ± 0.0074,0.9919 ± 0.0028,0.95945 ± 0.00013,0.945 ± 0.014
IARS2 (UniProt Q9NSE4),0.962 ± 0.033,0.9 ± 0.076,0.94 ± 0.015,0.937 ± 0.02,0.937 ± 0.011,0.892 ± 0.015
UTP3 (UniProt Q9NQZ2),1.01 ± 0.033,1.05 ± 0.039,1.03 ± 0.046,1.06 ± 0.069,1.12 ± 0.052,1.14 ± 0.058
UniProt Q9NR28 and related entries,1.07 ± 0.032,1.1 ± 0.11,1.07 ± 0.024,0.985 ± 0.046,1.04 ± 0.031,1.01 ± 0.046
HDAC6 (UniProt Q9UBN7),1.02 ± 0.022,1.01 ± 0.019,1 ± 0.045,0.9738 ± 0.0083,0.978 ± 0.017,0.972 ± 0.044
DPP3 (UniProt Q9NY33),0.955 ± 0.03,0.898 ± 0.035,0.934 ± 0.037,1 ± 0.067,0.996 ± 0.043,0.9705 ± 0.0082
BIRC6 (UniProt Q9NR09),0.977 ± 0.044,0.958 ± 0.068,0.964 ± 0.07,0.921 ± 0.06,0.894 ± 0.06,0.899 ± 0.091
UniProt Q9UBH6 and related entries,1.041 ± 0.0096,1.01 ± 0.025,1.031 ± 0.0021,1.03 ± 0.012,1.02 ± 0.012,1.02 ± 0.037
DIP2B (UniProt Q9P265),0.967 ± 0.037,0.951 ± 0.04,0.976 ± 0.023,0.971 ± 0.027,0.974 ± 0.013,0.952 ± 0.032
UBQLN4 (UniProt Q9NRR5),0.998 ± 0.013,1.04 ± 0.04,1.05 ± 0.019,0.9778 ± 0.0081,0.953 ± 0.012,0.959 ± 0.057
INTS10 (UniProt Q9NVR2),0.966 ± 0.014,0.932 ± 0.041,1 ± 0.03,1.03 ± 0.048,1.02 ± 0.012,1.03 ± 0.024
COPG2 (UniProt Q9UBF2),1.01 ± 0.021,0.953 ± 0.075,0.985 ± 0.027,0.995 ± 0.021,0.986 ± 0.012,0.978 ± 0.032
UniProt Q9NWK9 and related entries,1.05 ± 0.032,1.05 ± 0.035,1.01 ± 0.029,0.965 ± 0.015,0.958 ± 0.022,0.972 ± 0.025
UniProt Q9P0U3 and related entries,0.961 ± 0.031,0.895 ± 0.024,0.905 ± 0.018,1.03 ± 0.097,1.03 ± 0.027,0.961 ± 0.041
UniProt Q9NUP9,1.017 ± 0.0065,1.02 ± 0.022,0.998 ± 0.033,0.945 ± 0.028,0.974 ± 0.024,0.916 ± 0.033
UniProt Q9NXF7,0.997 ± 0.032,1.04 ± 0.044,0.9985 ± 0.005,0.973 ± 0.056,0.955 ± 0.016,0.978 ± 0.0026
UniProt Q9NRX2 and related entries,0.965 ± 0.064,0.984 ± 0.055,0.973 ± 0.054,0.977 ± 0.043,0.964 ± 0.078,0.99 ± 0.066

Target,NP40-soluble protein abundance (concentration: 1mM),NP40-soluble protein abundance (concentration: 2mM),NP40-soluble protein abundance (concentration: 4mM),NP40-soluble protein abundance (concentration: 6mM),NP40-soluble protein abundance (concentration: 8mM),NP40-soluble protein abundance (concentration: 10mM)
UniProt Q9NS23 and related entries,0.986 ± 0.057,0.972 ± 0.036,0.978 ± 0.027,0.98 ± 0.024,0.975 ± 0.0073,0.991 ± 0.027
TERF2IP (UniProt Q9NYB0),1.02 ± 0.016,1.07 ± 0.05,1.03 ± 0.031,1.02 ± 0.015,1 ± 0.012,1.02 ± 0.03
UniProt Q9NXA8 and related entries,1 ± 0.032,0.997 ± 0.028,1.02 ± 0.023,1.01 ± 0.011,0.984 ± 0.013,1 ± 0.034
RTN4 (UniProt Q9NQC3),1.05 ± 0.014,1.07 ± 0.057,1.04 ± 0.028,1.02 ± 0.014,1.01 ± 0.032,1.03 ± 0.065
NHP2 (UniProt Q9NX24),1 ± 0.013,0.997 ± 0.019,1.06 ± 0.05,1.14 ± 0.02,1.19 ± 0.021,1.2 ± 0.022
UniProt Q9NRZ7 and related entries,0.975 ± 0.028,0.958 ± 0.031,0.966 ± 0.014,0.927 ± 0.02,0.955 ± 0.018,0.941 ± 0.043
NIT2 (UniProt Q9NQR4),1.02 ± 0.029,0.969 ± 0.078,0.988 ± 0.043,0.968 ± 0.015,0.971 ± 0.054,0.966 ± 0.054
RCC2 (UniProt Q9P258),0.973 ± 0.041,0.902 ± 0.065,0.945 ± 0.063,1.01 ± 0.023,1.07 ± 0.015,1.038 ± 0.0087
UniProt Q9NZ09 and related entries,0.97 ± 0.013,1.05 ± 0.054,0.993 ± 0.02,0.987 ± 0.034,0.964 ± 0.052,0.974 ± 0.059
MRPL15 (UniProt Q9P015),0.953 ± 0.1,0.95 ± 0.057,0.958 ± 0.12,0.95 ± 0.14,0.96 ± 0.13,0.962 ± 0.21
PAK1IP1 (UniProt Q9NWT1),1.02 ± 0.013,1.05 ± 0.042,1.07 ± 0.017,1.147 ± 0.011,1.166 ± 0.011,1.22 ± 0.033
GDE1 (UniProt Q9NZC3),1.01 ± 0.043,1.02 ± 0.034,1.01 ± 0.03,1.01 ± 0.08,0.995 ± 0.05,1.01 ± 0.06
PANK4 (UniProt Q9NVE7),0.992 ± 0.029,0.98 ± 0.066,1.01 ± 0.039,0.984 ± 0.026,1 ± 0.052,0.981 ± 0.041
OXSM (UniProt Q9NWU1),1.019 ± 0.0062,0.995 ± 0.011,1.01 ± 0.036,0.998 ± 0.012,1 ± 0.029,1.01 ± 0.043
UniProt Q9NXR1 and related entries,0.994 ± 0.029,1.07 ± 0.041,1.01 ± 0.025,0.978 ± 0.019,0.985 ± 0.026,0.9852 ± 0.0096
UniProt Q9NXK8 and related entries,1.018 ± 0.0035,1 ± 0.031,0.9901 ± 0.0047,0.9994 ± 0.008,1.005 ± 0.0022,0.998 ± 0.024
UniProt Q9NZ01,0.98 ± 0.037,0.878 ± 0.089,0.96 ± 0.037,0.964 ± 0.032,1.05 ± 0.032,0.944 ± 0.036
UniProt Q9NX04 and related entries,1.017 ± 0.0076,0.997 ± 0.048,1.08 ± 0.014,1.14 ± 0.02,1.14 ± 0.046,1.11 ± 0.037
PPP4R2 (UniProt Q9NY27),1.07 ± 0.04,1.06 ± 0.027,1.08 ± 0.015,1.054 ± 0.01,1.06 ± 0.019,1.07 ± 0.037
TMOD3 (UniProt Q9NYL9),1.02 ± 0.045,1.05 ± 0.057,1.01 ± 0.061,0.977 ± 0.046,0.985 ± 0.029,0.957 ± 0.054

# Taken from above:
# PANK4 (UniProt Q9NVE7) | NP40-soluble protein abundance (concentration: 6mM): 0.984 ± 0.026
# UniProt Q9NZ01 | NP40-soluble protein abundance (concentration: 2mM): 0.878 ± 0.089
# TERF2IP (UniProt Q9NYB0) | NP40-soluble protein abundance (concentration: 10mM): 1.02 ± 0.03
# UniProt Q9NXR1 and related entries | NP40-soluble protein abundance (concentration: 8mM): 0.985 ± 0.026
# SMARCAL1 (UniProt Q9NZC9) | NP40-soluble protein abundance (concentration: 8mM): 1.01 ± 0.026

# Exported with bars between the fields: part of the list above.
Target | NP40-soluble protein abundance (concentration: 1mM) | NP40-soluble protein abundance (concentration: 2mM) | NP40-soluble protein abundance (concentration: 4mM) | NP40-soluble protein abundance (concentration: 6mM) | NP40-soluble protein abundance (concentration: 8mM) | NP40-soluble protein abundance (concentration: 10mM)
PAK1IP1 (UniProt Q9NWT1) | 1.02 ± 0.013 | 1.05 ± 0.042 | 1.07 ± 0.017 | 1.147 ± 0.011 | 1.166 ± 0.011 | 1.22 ± 0.033
GDE1 (UniProt Q9NZC3) | 1.01 ± 0.043 | 1.02 ± 0.034 | 1.01 ± 0.03 | 1.01 ± 0.08 | 0.995 ± 0.05 | 1.01 ± 0.06

# Continuation:

Target,NP40-soluble protein abundance (concentration: 1mM),NP40-soluble protein abundance (concentration: 2mM),NP40-soluble protein abundance (concentration: 4mM),NP40-soluble protein abundance (concentration: 6mM),NP40-soluble protein abundance (concentration: 8mM),NP40-soluble protein abundance (concentration: 10mM)
TXNL4B (UniProt Q9NX01),0.984 ± 0.014,0.987 ± 0.032,0.993 ± 0.034,0.984 ± 0.015,0.98 ± 0.033,0.983 ± 0.02
RNF181 (UniProt Q9P0P0),0.96 ± 0.026,1.02 ± 0.039,0.97 ± 0.047,0.936 ± 0.04,0.9415 ± 0.0063,0.922 ± 0.073
MIOS (UniProt Q9NXC5),0.987 ± 0.01,0.974 ± 0.028,0.985 ± 0.035,1.014 ± 0.0037,1.05 ± 0.023,1.07 ± 0.057
UniProt Q9NW68 and related entries,0.985 ± 0.038,1.05 ± 0.038,0.994 ± 0.065,0.99 ± 0.038,0.958 ± 0.024,0.951 ± 0.082
UniProt Q9NRY2,0.996 ± 0.018,0.9986 ± 0.0012,0.98 ± 0.02,1.008 ± 0.0047,1.011 ± 0.0053,1.007 ± 0.0039
FASTKD2 (UniProt Q9NYY8),1.013 ± 0.0076,0.999 ± 0.038,0.963 ± 0.014,0.945 ± 0.031,0.953 ± 0.016,0.938 ± 0.025
UniProt Q9NZJ9 and related entries,0.983 ± 0.056,0.954 ± 0.075,1.01 ± 0.056,1.06 ± 0.088,1.09 ± 0.079,1.07 ± 0.065
MDN1 (UniProt Q9NU22),0.974 ± 0.088,0.946 ± 0.15,1 ± 0.1,0.97 ± 0.091,0.978 ± 0.092,0.98 ± 0.1
UniProt Q9P2R7 and related entries,0.9771 ± 0.0078,0.943 ± 0.027,0.938 ± 0.011,0.977 ± 0.032,0.958 ± 0.012,0.969 ± 0.049
UniProt Q9NUT2 and related entries,0.986 ± 0.026,0.932 ± 0.05,0.9832 ± 0.004,0.9535 ± 0.0073,0.946 ± 0.032,0.935 ± 0.062
RAD18 (UniProt Q9NS91),1.03 ± 0.042,1.01 ± 0.032,1.07 ± 0.042,1.07 ± 0.02,1.05 ± 0.028,1.1 ± 0.039
FANCI (UniProt Q9NVI1),0.971 ± 0.018,0.973 ± 0.028,0.975 ± 0.03,1.04 ± 0.056,1.01 ± 0.055,1.04 ± 0.04
TMOD2 (UniProt Q9NZR1),0.97 ± 0.025,1.03 ± 0.038,0.977 ± 0.036,0.9653 ± 0.005,0.963 ± 0.029,0.978 ± 0.015
CDKN2AIP (UniProt Q9NXV6),0.998 ± 0.025,1.04 ± 0.061,0.9964 ± 0.0077,1.009 ± 0.01,0.993 ± 0.029,1.03 ± 0.023
UniProt Q9NQS7 and related entries,1.02 ± 0.02,1.05 ± 0.038,1.05 ± 0.065,1.13 ± 0.12,1.15 ± 0.14,1.19 ± 0.2
UniProt Q9NT62 and related entries,1.05 ± 0.041,1.06 ± 0.073,1.05 ± 0.068,0.98 ± 0.042,1.01 ± 0.042,0.997 ± 0.074
MRC2 (UniProt Q9UBG0),1.015 ± 0.01,1.03 ± 0.028,1.02 ± 0.03,1.009 ± 0.0082,1.03 ± 0.029,1.016 ± 0.0095
UniProt Q9NXN4 and related entries,0.985 ± 0.034,0.963 ± 0.029,1.01 ± 0.045,0.999 ± 0.073,1.01 ± 0.039,0.9755 ± 0.0088
UniProt Q9NVX0 and related entries,1.03 ± 0.047,0.998 ± 0.02,1.02 ± 0.039,0.978 ± 0.062,0.987 ± 0.045,0.982 ± 0.049
CCDC59 (UniProt Q9P031),0.972 ± 0.04,0.9869 ± 0.0081,0.972 ± 0.026,0.984 ± 0.022,0.994 ± 0.031,0.984 ± 0.025
